Screening data, single-dose tests

From ChEMBL document CHEMBL3988442, “University of Dundee, Small-Polar-MMV Screening Library” (2021).

Values are the deposited “Percent Effect”, in %.
The controls that fix the scale are not given in the record; negative values are as filed.
This is an unselected part of the compounds tested.
Two or more numbers in one place are separate tests of the same structure; such repeats can differ widely.

Mtb glucose medium: 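Phenotypic screen: M. tuberculosis growth, glucose 7H9 medium, 3 days; the read-out is not stated. Tested at 50 µM. The record gives no direction; compounds that gave an IC50 in retests scored well above the rest, so higher reads as more growth inhibition. Of about 69,000 compounds tested this way, about 760 (1.1%) reached 50% or more in at least one test.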
Mtb cholesterol medium: 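Whole-cell growth test on Mycobacterium tuberculosis, read after 4 days in a medium based on cholesterol and the lipid DPPC; the read-out is not stated. Compounds at 50 µM. Higher reads as more growth inhibition (inferred: compounds with an IC50 in retests scored well above the rest). Of about 69,000 compounds tested this way, about 370 (0.54%) reached 50% or more in at least one test.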

- CC1CCN(CCCNS(=O)(=O)Cc2ccccc2F)CC1 : Mtb glucose medium: -11.22%; Mtb cholesterol medium: 2.419%
- CCC(NCc1cccc(Cl)c1)c1ccccc1OCC(=O)NC (centres unmarked) : Mtb glucose medium: 5.51%; Mtb cholesterol medium: -9.682%
- O=C(O)C(F)(F)F.[H][C@@]12CCN(CC3CCOCC3)C[C@]1([H])O[C@H](C(=O)N1CCC(C)CC1)C2 : Mtb glucose medium: -5.959% & -14.73%; Mtb cholesterol medium: 1.97%
- Cc1cnn(CC2CCCN2Cc2noc(C(C)(C)C)n2)c1 (centres unmarked) : Mtb glucose medium: 19.95%; Mtb cholesterol medium: 3.984%
- CCC(C)(CNC(=O)Nc1nccs1)N1CCOCC1 (centres unmarked) : Mtb glucose medium: -6.549% & 3.165%; Mtb cholesterol medium: -16.2%
- O=S(=O)(C1CC1)N1CC[C@]2(C[C@H](OCC3CCOCC3)CO2)C1 : Mtb glucose medium: 5.361%; Mtb cholesterol medium: -13.18%
- CC(NCc1cc(O)c2cccc(F)c2n1)c1ccccc1O (centres unmarked) : Mtb glucose medium: -30.46%; Mtb cholesterol medium: -4.919%
- Cc1nc(NC(=O)NCc2nc3cccc(C)c3n2C)oc1C : Mtb glucose medium: -24.56%; Mtb cholesterol medium: -14.05%
- CCc1nc(CS(=O)(=O)Cc2noc(C3CC3)n2)cs1 : Mtb glucose medium: 21.69%; Mtb cholesterol medium: 12.43% & 7.882%
- Cc1ccc(CC(=O)N2CCCC(c3nccs3)C2)cn1 (centres unmarked) : Mtb glucose medium: -17.8%; Mtb cholesterol medium: 10.72%
- CC(=O)c1nn(-c2ccccc2Cl)c(C)c1C(C)=O : Mtb glucose medium: 20.09% & -0.687%; Mtb cholesterol medium: 10.55%
- CCN(C(=O)Cn1cc(Cl)cn1)c1ccccc1 : Mtb glucose medium: -5.152%; Mtb cholesterol medium: -26.33%
- O=C(NCC1Cn2nnc(-c3ccoc3)c2CO1)c1ccc[nH]1 (centres unmarked) : Mtb glucose medium: -29.03%; Mtb cholesterol medium: 3.457%
- CCOCC1CN(S(=O)(=O)N(C)C)Cc2cnn(CC)c21.O=C(O)C(F)(F)F (centres unmarked) : Mtb glucose medium: -3.98% & 11.13%; Mtb cholesterol medium: -10.73%
- CCN(c1ccccc1C(=O)O)S(=O)(=O)c1cccc2cccnc12 : Mtb glucose medium: 0.7545%; Mtb cholesterol medium: -10.74%
- Cc1cc(C[C@@H]2COC[C@@H]2NC(=O)CN2CCc3ccccc3C2)on1 : Mtb glucose medium: -18.53%; Mtb cholesterol medium: -26.96%
- CN1CCC(N(C)CCC(=O)N2CCC(Oc3ccc(Cl)cc3)CC2)C1 (centres unmarked) : Mtb glucose medium: 43.27%; Mtb cholesterol medium: 23.22%
- NC(=O)C1(CNCc2csc(-c3cccs3)n2)CCOCC1 : Mtb glucose medium: -21.72%; Mtb cholesterol medium: 5.417%
- Cn1c(=O)c2cc(C(=O)NCc3ccccn3)ccc2n(C)c1=O : Mtb glucose medium: 8.952%; Mtb cholesterol medium: -29.9%
- CC[C@H](Cn1ncc2ccccc2c1=O)NC(=O)c1cnc(C)cn1 : Mtb glucose medium: 8.257%; Mtb cholesterol medium: -0.06494%
- NC(=O)C(CNC(=O)COCC(F)(F)F)Cc1ccc(F)cc1 (centres unmarked) : Mtb glucose medium: 0.517% & 4.912%; Mtb cholesterol medium: -13.46%
- NC(=O)N1CCc2cc(C(=O)O)c(-c3ccsc3)nc2CC1.O=C(O)C(F)(F)F : Mtb glucose medium: -37.15% & -3.468%; Mtb cholesterol medium: -4.216%
- [H][C@@]12COC[C@]1(C(=O)N1CCCO1)CN(Cc1cnn(C)c1)C2 : Mtb glucose medium: -7.023% & -4.87%; Mtb cholesterol medium: -10.52%

For reference, 3 entries once more:

* Cc1ccc(CC(=O)N2CCCC(c3nccs3)C2)cn1 (centres unmarked) : Mtb glucose medium: -17.8%; Mtb cholesterol medium: 10.72%
* CCc1nc(CS(=O)(=O)Cc2noc(C3CC3)n2)cs1 : Mtb glucose medium: 21.69%; Mtb cholesterol medium: 12.43% & 7.882%
* CCC(C)(CNC(=O)Nc1nccs1)N1CCOCC1 (centres unmarked) : Mtb glucose medium: -6.549% & 3.165%; Mtb cholesterol medium: -16.2%